Out of some 350,000 compounds screened, about 220 (0.063%) were called active. This list was built around the results that the source calls inconclusive (neither active nor inactive); the mix of calls is not that of the screen. Calls come from the whole dose curve; as a rule, active = well fitted activation curve with a large enough effect; inconclusive = small, poorly fitted or top-dose-only effect; inactive = no such curve, though single readings can be large or run the other way. Where the call is inconclusive, the potency comes from a doubtful curve fit.
Experiment: qHTS for Activators of Integrin-Mediated Alleviation for Muscular Dystrophy; note: nearly all actives have a fitted effect of over 60% in size;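 for activation: 100% = response of the positive control SU9516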
Conditions: alpha7betagal myoblasts, beta-gal FDG fluorescence, 48 h; activation: at 38.3 µM (top of the series)
How it was run: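 alpha7betagal+/- myoblasts (passage 13, 250/well) treated 48 h at 37C with compounds at 1:260 dilution of DMSO stock. Lysed, then beta-galactosidase activity read as FDG fluorescence (ex 480/em 540) after 30 min, with pre-read for autofluorescence.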
Potency is the fitted concentration of half-maximal effect.

| Compound | activation | Potency |
| --- | --- | --- |
| COc1ccc(-c2noc3c2-c2nc(C(C)C)sc2CC3)cc1 | inactive: 3.88% |  |
| COc1ccc(NC(=O)CN(C)CC(=O)NCc2ccc(C)cc2)cc1 |  | inconclusive: 5.01 µM [activator, single point] |
| COc1ccc(NC(=S)NC(=NS(=O)(=O)c2ccc(Cl)cc2)c2ccccc2)cc1 | inactive: -20.2% |  |
| O=C1c2cccc3cc([N+](=O)[O-])cc(c23)C(=O)N1/N=C/c1ccc(O)cc1O | inactive: -52.7% |  |
| CC1=NN(C(C#N)c2ccccc2)C(c2ccccc2)C1 (configuration not stated) |  | inconclusive: 28.2 µM [activator, single point] |
| C=CCn1c(SCC(=O)c2ccc(Cl)cc2)nnc1-c1ccc2c(c1)OCO2 |  | inconclusive: 22.4 µM [activator, single point] |
| COc1ccc(NC(=O)c2ccc(S(=O)(=O)N(C)C)cc2)cc1OC | inactive: 15.1% |  |
| CC1CCc2ccccc2N1C(N)=Nc1ccccc1 (configuration not stated) |  | inconclusive: 2.24 µM [activator, partial curve, poor fit] |
| COc1ccccc1N1CCN(C(=O)c2cc(-c3ccc(F)cc3)on2)CC1 |  | inconclusive: 7.94 µM [activator, partial curve, poor fit] |
| COc1ccc(CCn2c(=N)c(S(=O)(=O)c3ccccc3)cc3c(=O)n4ccccc4nc32)cc1 | inactive: -7.2% |  |
| CS(=O)(=O)N1CCN(c2ccc(C(=O)N3CCOCC3)cc2[N+](=O)[O-])CC1 |  | inconclusive: 12.6 µM [activator, partial curve, poor fit] |
| CS(=O)(=O)c1ccccc1C(=O)N1CCN(Cc2ccccc2)CC1 |  | inconclusive: 22.4 µM [activator, single point] |
| O=C(NNC(=S)NC(=O)c1ccccc1[N+](=O)[O-])c1ccccc1[N+](=O)[O-] | inactive: 18.5% |  |
| COc1ccc(CNC(=O)CN(C(=O)CCC(=O)Nc2ccccn2)c2cccc(C)c2C)cc1 | inactive: 19.1% |  |
| O=C(NC1CCCN(C2Cc3ccccc3C2)C1)c1ccc(F)cc1Cl (configuration not stated) |  | inconclusive: 1.78 µM [activator, single point] |
| O=C(O)c1ccccc1SCc1cn2ccccc2n1 |  | inconclusive: 1.12 µM [activator, partial curve, poor fit] |
| O=C(C1CC1)N1CCN(c2ccc([N+](=O)[O-])cc2-n2cccc2)CC1 |  | inconclusive: 5.01 µM [activator, single point] |
| COc1ccc(NS(=O)(=O)c2ccc(N3CCOCC3)c(NC(=O)c3ccc(F)cc3)c2)cc1 | inactive: -8.56% |  |
| CCCNC1(C(N)=O)CCN(Cc2ccccc2)CC1 |  | inconclusive: 5.01 µM [activator, single point] |
| O=C(c1ccccc1)n1nnc2ccccc21 | inactive: -0.9% |  |
| CC(CC(=O)N1CCN(c2cccc(Cl)c2)CC1)S(=O)(=O)c1ccc2c(c1)NC(=O)CO2 (configuration not stated) | inactive: -42.3% |  |
| NS(=O)(=O)c1cccc(NC(=O)c2cc(-c3cccs3)nc3ccccc23)c1 | inactive: -23.7% |  |
| CN(Cc1nc2ccc(Cl)cc2[nH]1)Cc1nc(-c2cnccn2)no1 |  | inconclusive: 2.82 µM [activator, single point] |

| Compound | activation | Potency |
| --- | --- | --- |
| CCCN1C(=O)COc2ccc(-c3n[nH]c(=O)c4ccccc34)cc21 |  | inconclusive: 0.282 µM [activator, partial curve, poor fit] |
| Cc1c(C(=O)N2CCOCC2)c(S(=O)(=O)Nc2ccc(Br)cc2F)c(C)n1C |  | inconclusive: 2.24 µM [activator, single point] |
| CCCOc1ccc(C(=O)ON=C2CCN(C)CC2)cc1 |  | inconclusive: 3.16 µM [activator, single point] |
| COc1cccc(CNC(=O)CCC2CCCN(C(=O)C3CCOCC3)C2)c1 (configuration not stated) |  | inconclusive: 10 µM [activator, partial curve, poor fit] |
| O=C(Nc1ccccc1Cl)Nn1cnnc1 |  | inconclusive: 5.01 µM [activator, single point] |
| CCOC(=O)N1CCN(C(=O)Cc2c(C(=O)O)n(C)c3ccccc23)CC1 |  | inconclusive: 5.01 µM [activator, single point] |
| O=C(CC1S/C(=N/N=C/c2ccco2)NC1=O)Nc1cccc(Cl)c1Cl (configuration not stated) | inactive: 12.9% |  |
| CCN(c1ccc(NC(=O)COC(=O)C2CCN(c3ccc(C(F)(F)F)cn3)CC2)cc1)C(C)C | inactive: -32.1% |  |
| C/C(CC(C)C)=N/Nc1ccc([N+](=O)[O-])cc1[N+](=O)[O-] |  | inconclusive: 3.16 µM [activator, partial curve, poor fit] |
| CCCOc1cc(C)c(S(=O)(=O)NCc2cccs2)cc1C | inactive: -9.33% |  |
| COc1ccc(NC(=O)Nc2ccc(C(C)C)cc2)cc1 |  | inconclusive: 10 µM [activator, partial curve, poor fit] |
| Cc1cc(=O)n(-c2ccc(C(=O)O)cc2)[nH]1 | inactive: 2.97% |  |
| O=C1CSC(c2ccc(F)cc2)N1c1ccccc1F (configuration not stated) |  | inconclusive: 5.01 µM [activator, single point] |
| O=C(CN1CCN(S(=O)(=O)c2ccc(F)cc2)CC1)Nc1ccnn1C1CCCC1 |  | inconclusive: 3.16 µM [activator, partial curve, poor fit] |
| CC(=O)COC(=O)c1cc(-c2ccc(C)cc2)nc2ccccc12 |  | inconclusive: 28.2 µM [activator, single point] |
| CN(CC(=O)Nc1ccc(S(N)(=O)=O)cc1)c1ccccc1 |  | inconclusive: 11.2 µM [activator, partial curve, poor fit] |
| O=C(CN1C(=O)C(=O)N(C2CCCC2)C1=O)Nc1ccc(OC(F)F)cc1 |  | inconclusive: 28.2 µM [activator, single point] |
| COc1cc(C(=O)NC(=S)Nc2ccccc2N2CCOCC2)cc(OC)c1OC | inactive: -5.47% |  |
| Cc1nc(C)c(C(=O)Nc2cccc(Cl)c2)o1 |  | inconclusive: 1.78 µM [activator, partial curve, poor fit] |
| C(=N/Nc1nc(-c2ccccc2)cc(-c2ccccc2)n1)/c1cccnc1 |  | inconclusive: 10 µM [activator, single point] |
| CC(=O)c1ccc(S(=O)(=O)N(C)CC(=O)NCC2CCCCC2)cc1 |  | inconclusive: 3.55 µM [activator, partial curve, poor fit] |
| CCCCN(C(=S)Nc1cccc(C)c1C)c1c(N)n(CCC)c(=O)[nH]c1=O |  | inconclusive: 5.01 µM [activator, single point] |
| CCOC(=O)C1CCN(S(=O)(=O)c2cn(C)cn2)CC1 | inactive: 10.4% |  |

| Compound | activation | Potency |
| --- | --- | --- |
| Cc1ccc(COc2ccc(/C=N/NC(=O)CN3CCCCC3)cc2)cc1 |  | inconclusive: 2.82 µM [activator, single point] |
| COc1ccc(/C=N/Nc2nc(-c3ccc(C)cc3)c(C#N)c(=O)[nH]2)cc1 |  | inconclusive: 8.91 µM [activator, single point] |
| CCOC(=O)c1c(S(=O)(=O)N2CCCC2)c(C)n(C)c1C |  | inconclusive: 5.01 µM [activator, single point] |
| CCCCS(=O)(=O)N1CCC(C(=O)Oc2ccc(Cl)cc2)CC1 |  | inconclusive: 0.501 µM [activator, full curve, poor fit] |
| CCn1c(C)cc(/C=C2/NC(=O)N(c3ccccc3)C2=O)c1C |  | inconclusive: 7.08 µM [activator, single point] |
| CCN(CC)C(=O)C1CCCN(c2ncnc3c2cnn3-c2ccc(Cl)cc2)C1 (configuration not stated) | inactive: 11.2% |  |
| O=[N+]([O-])c1ccc(O)c(/C=N/Nc2nn[nH]n2)c1 |  | inconclusive: 2 µM [activator, full curve, poor fit] |
| CCOC(=O)c1c(C)nc2c(C#N)cnn2c1C | inactive: -4.53% |  |
| CN(C)S(=O)(=O)c1cccc(NC(=S)Nc2ccc(Cl)cc2Cl)c1 | inactive: -9.18% |  |
| C=CCn1cc(C(=O)N2CCN(C)CC2)c(=O)c2cc(S(=O)(=O)N(CC)CC)ccc21 |  | inconclusive: 5.01 µM [activator, single point] |
| Cc1ccc(CSCc2ccc(C(=O)NCC3CCCO3)o2)cc1 (configuration not stated) |  | inconclusive: 31.6 µM [activator, single point] |
| COc1ccc(-c2nsc3c(N4CCCCC4)ncnc23)cc1 |  | inconclusive: 1 µM [activator, partial curve, poor fit] |
| COc1ccc(F)cc1S(=O)(=O)N1CCC2(CC1)OCCN2S(=O)(=O)c1ccccc1 |  | inconclusive: 0.501 µM [activator, full curve, poor fit] |
| CCCCNC(=O)c1cn(C)c2ccc(S(=O)(=O)N3CC(C)CC(C)C3)cc2c1=O (configuration not stated) |  | inconclusive: 5.01 µM [activator, partial curve] |
| CCOc1ncccc1C(=O)OCC(=O)c1ccccc1Br |  | inconclusive: 5.01 µM [activator, single point] |
| CC(=O)N1CCN(C(=O)CNc2cc(C(F)(F)F)ccc2OCC(F)(F)F)CC1 |  | inconclusive: 3.55 µM [activator, partial curve, poor fit] |
| CC1CCCCC1NC(=O)Cn1nnc(-c2ccc(Cl)cc2)n1 (configuration not stated) |  | inconclusive: 3.98 µM [activator, full curve, poor fit] |
| COc1ccccc1NC(=O)Nc1ccccc1C(N)=O |  | inconclusive: 28.2 µM [activator, single point] |
| CCC(C)NC(=O)Cn1nc([N+](=O)[O-])c(Cl)c1C (configuration not stated) |  | inconclusive: 28.2 µM [activator, single point] |
| Cc1noc(C)c1C(=O)OCC(=O)N(C)C1(C#N)CCCCC1 |  | inconclusive: 12.6 µM [activator, partial curve] |
| O=C(OCn1nnc2ccccc2c1=O)c1ccc(O)cc1 |  | inconclusive: 14.1 µM [activator, single point] |

3 of these compounds in a different format:
Compound | activation | Potency
CCC(C)NC(=O)Cn1nc([N+](=O)[O-])c(Cl)c1C (configuration not stated) |  | inconclusive: 28.2 µM [activator, single point]
Cc1noc(C)c1C(=O)OCC(=O)N(C)C1(C#N)CCCCC1 |  | inconclusive: 12.6 µM [activator, partial curve]
O=C(OCn1nnc2ccccc2c1=O)c1ccc(O)cc1 |  | inconclusive: 14.1 µM [activator, single point]
